The list shows only some results of the screen, not a fair sample: it is rich in T/C values a quarter to a half above the control, in often repeated tests (any T/C) and in doses without a T/C. Further doses and runs are listed elsewhere. T/C: endpoint of the treated group in % of that of the vehicle group. Some doses have a count of surviving animals in place of a T/C: the source files T/C as zero there, which appears to mark a toxic dose or a test without result, not a measured value. Some doses without a T/C left all or most animals alive at the check, yet need not have been tolerated: the source hardly ever lists a survival T/C far under the control, and the zero likely stands for such cases as well. Survivors were counted at the toxicity check, usually on the fifth day, unless a day is given; later deaths do not show. Schedules are NCI's codes, read here as Q, the interval in days (D) or hours (H), X, the number of doses. Additions like (4×) say how often a value occurs here. Some entries were tested several times; the results are listed from low to high. For survival time, the PubChem record calls one and a half times the control and up active, and a quarter to a half above the control has no call in these data; cut-offs in other NCI protocols can differ. Some T/C values carry the count of animals alive at the toxicity check (mostly the fifth day); where none is given, no animal had died by that day.
Test system: P388 leukemia ip, CD2F1 mice, survival T/C
Assay: NCI In Vivo Anticancer Drug Screen. Data for tumor model P388 Leukemia (intraperitoneal) in CD2F1 (CDF1) mice
Settings: T/C endpoint: median survival time, higher T/C = longer survival
[1] = dose: 200.0 mg/kg/injection, schedule: Q01DX009 (ip), vehicle: saline with Tween-80
[2] = dose: 400.0 mg/kg/injection, schedule: Q01DX005 (ip), vehicle: saline with Tween-80
[3] = dose: 200.0 mg/kg/injection, schedule: Q01DX001 (ip), vehicle: DMSO
[4] = dose: 400.0 mg/kg/injection, schedule: Q01DX001 (ip), vehicle: DMSO
[5] = dose: 240.0 mg/kg/injection, schedule: Q01DX005 (ip), vehicle: Klucel (hydroxypropylcellulose) (HPC)
[6] = dose: 50.0 mg/kg/injection, schedule: Q01DX009 (ip), vehicle: saline with Tween-80
[7] = dose: 100.0 mg/kg/injection, schedule: Q01DX005 (ip), vehicle: saline with Tween-80
[8] = dose: 200.0 mg/kg/injection, schedule: Q01DX005 (ip), vehicle: saline with Tween-80
[9] = dose: 100.0 mg/kg/injection, schedule: Q01DX005 (ip), vehicle: Klucel (hydroxypropylcellulose) (HPC)
[10] = dose: 6.25 mg/kg/injection, schedule: Q01DX009 (ip), vehicle: saline
[11] = dose: 12.5 mg/kg/injection, schedule: Q01DX009 (ip), vehicle: saline

## CCN(CC)CCO[C@H]1CC[C@@]2(C)C(=CC[C@@H]3[C@@H]2CC[C@]2(C)C(=O)CC[C@@H]32)C1
dose: 100.0 mg/kg/injection, schedule: Q04DX003 (ip), vehicle: saline
  survivor count: 0 of 6
dose: 200.0 mg/kg/injection, schedule: Q04DX003 (ip), vehicle: saline
  survivor count: 0 of 6
dose: 400.0 mg/kg/injection, schedule: Q04DX003 (ip), vehicle: saline
  survivor count: 0 of 6

## Cc1cc(SCC(=O)c2ccc(Br)cc2)cc(C)[o+]1
[1]
  survivor count: 3 of 6
dose: 400.0 mg/kg/injection, schedule: Q04DX003 (ip), vehicle: saline with Tween-80
  survivor count: 6 of 6

## CCc1cc2c(cc1C(C)=O)C(C)(C)CCC2(C)C
[1]
  survivor count: 5 of 6

## O=C1C=CC(=Nc2ccc3[nH]c4ccccc4c3c2)C=C1
[2]
  survivor count: 2 of 6

## COc1cc2c3cc1Oc1c(O)c(OC)cc4c1[C@H](Cc1ccc(O)c(c1)Oc1ccc(cc1)C[C@H]3N(C)CC2)N(C)CC4
dose: 75.0 mg/kg/injection, schedule: Q01DX009 (ip), vehicle: Klucel (hydroxypropylcellulose) (HPC)
  survivor count: 6 of 6
dose: 150.0 mg/kg/injection, schedule: Q01DX009 (ip), vehicle: Klucel (hydroxypropylcellulose) (HPC)
  survivor count: 2 of 6

## C/C=C(/C)C(=O)OC1c2c(C)coc2CC23OC2CCC(C)C13C (configuration not stated)
dose: 100.0 mg/kg/injection, schedule: Q01DX009 (ip), vehicle: Klucel (hydroxypropylcellulose) (HPC)
  survivor count: 6 of 6

## CNC(=O)OCc1c(COC(=O)NC)c(-c2ccc(Br)cc2)n(C)c1C
dose: 2.5 mg/kg/injection, schedule: Q01DX009 (ip), vehicle: distilled water + Tween-80
  T/C: 138 % of control
dose: 3.12 mg/kg/injection, schedule: Q01DX009 (ip), vehicle: distilled water + Tween-80
  T/C: 142 % of control
dose: 5.0 mg/kg/injection, schedule: Q01DX009 (ip), vehicle: distilled water + Tween-80
  T/C: 144 % of control
dose: 6.25 mg/kg/injection, schedule: Q01DX009 (ip), vehicle: distilled water + Tween-80
  T/C: 145 % of control
dose: 10.0 mg/kg/injection, schedule: Q01DX009 (ip), vehicle: distilled water + Tween-80
  T/C: 146 % of control
dose: 12.5 mg/kg/injection, schedule: Q01DX009 (ip), vehicle: distilled water + Tween-80
  T/C: 148 % of control
dose: 25.0 mg/kg/injection, schedule: Q01DX009 (ip), vehicle: distilled water + Tween-80
  T/C: 148 % of control
dose: 40.0 mg/kg/injection, schedule: Q01DX009 (ip), vehicle: distilled water + Tween-80
  survivor count: 5 of 6
dose: 50.0 mg/kg/injection, schedule: Q01DX009 (ip), vehicle: distilled water + Tween-80
  survivor count: 4 of 6

## CCOc1cc2c(C)c3ccccc3c(C)c2c2ccccc12
dose: 200.0 mg/kg/injection, schedule: Q04DX003 (ip), vehicle: other
  survivor count: 6 of 6

## Cc1cc2nc3c(=O)[nH]c(=O)nc-3n(CCOC(=O)CCC(=O)O)c2cc1C
dose: 400.0 mg/kg/injection, schedule: Q04DX003 (ip), vehicle: saline sonified
  survivor count: 3 of 6

## CCOc1ccc2nc([NH-])sc2c1.CCOc1ccc2nc([NH-])sc2c1.CCOc1ccc2nc([NH-])sc2c1.CCOc1ccc2nc([NH-])sc2c1.[Cl][Rh][Cl]
[3]
  survivor count: 3 of 6
[4]
  survivor count: 0 of 6

## COc1cccc2c1C(=O)c1nccc3cc4c(c-2c13)OCO4
[5]
  survivor count: 6 of 6

## CC1=CC2=C(C=O)C(=O)[C@](C)(O)[C@@H](O)C2=CO1
[6]
  survivor count: 6 of 6

## COC(=O)c1cc(=O)nc(NN=C2c3ccccc3-c3ccccc32)s1
[7]
  survivor count: 5 of 5
[8]
  survivor count: 3 of 5

## C=Cn1c([N+](=O)[O-])cnc1/C=C/c1ccc(C(=O)OCCN2CCCC2)cc1
[3]
  survivor count: 0 of 6
[4]
  survivor count: 0 of 6

## O=C(CC(O)c1ccccc1)Sc1ccccc1 (configuration not stated)
dose: 100.0 mg/kg/injection, schedule: Q04DX003 (ip), vehicle: Klucel (hydroxypropylcellulose) (HPC)
  survivor count: 3 of 6
dose: 200.0 mg/kg/injection, schedule: Q04DX003 (ip), vehicle: Klucel (hydroxypropylcellulose) (HPC)
  survivor count: 2 of 6
dose: 400.0 mg/kg/injection, schedule: Q04DX003 (ip), vehicle: Klucel (hydroxypropylcellulose) (HPC)
  survivor count: 1 of 6

## O=C1OC(=O)C2=C1CCC2
dose: 100.0 mg/kg/injection, schedule: Q01DX009 (ip), vehicle: distilled water + Tween-80
  survivor count: 3 of 6
dose: 200.0 mg/kg/injection, schedule: Q01DX009 (ip), vehicle: distilled water + Tween-80
  survivor count: 2 of 6

## CCCc1cc(=O)n(-c2ccc([N+](=O)[O-])cn2)c(=S)[nH]1
[9]
  survivor count: 3 of 5
dose: 200.0 mg/kg/injection, schedule: Q01DX005 (ip), vehicle: Klucel (hydroxypropylcellulose) (HPC)
  survivor count: 0 of 5

## O=C(O)[C@@H]1[C@H](C(=O)O)[C@H](C(=O)O)C[C@@H]1C(=O)O
dose: 400.0 mg/kg/injection, schedule: Q01DX009 (ip), vehicle: saline
  survivor count: 5 of 6

## CNC(=O)Sc1ccc(C)c(N(C)C)c1
[7]
  T/C: 126 % of control
[8]
  T/C: 127 and 133 % of control [5 of 6 alive]
[2]
  survivor count: 0 of 6

## CCOC(=O)CN1CN(CCc2ccccc2)CC(C)(C)C1OCC (configuration not stated)
[6]
  T/C: 128 % of control
dose: 100.0 mg/kg/injection, schedule: Q01DX009 (ip), vehicle: saline with Tween-80
  T/C: 135 % of control
[1]
  T/C: 137 % of control

## O=[N+]([O-])OI(c1ccccc1)c1ccccc1
dose: 3.12 mg/kg/injection, schedule: Q01DX009 (ip), vehicle: saline
  survivor count: 6 of 6
[10]
  T/C: 105, 109, 116 % of control
  survivor count: 2 of 6
[11]
  T/C: 98 and 124 % of control
  survivor count: 0 of 6 and 5 of 6
dose: 25.0 mg/kg/injection, schedule: Q01DX009 (ip), vehicle: saline
  survivor count: 0 of 6
dose: 50.0 mg/kg/injection, schedule: Q01DX009 (ip), vehicle: saline
  survivor count: 0 of 6
dose: 100.0 mg/kg/injection, schedule: Q01DX009 (ip), vehicle: saline
  survivor count: 0 of 6
dose: 200.0 mg/kg/injection, schedule: Q01DX009 (ip), vehicle: saline
  survivor count: 0 of 6

## COc1ccc(/C=N/N2CN(C(C)C(=O)O)C(O)(CCl)N=C2N)cc1OC (configuration not stated)
dose: 240.0 mg/kg/injection, schedule: Q01DX005 (ip), vehicle: saline
  T/C: 126 % of control

## Cc1cc(NCCCN(C)C)c2ccc3cc4ccccc4cc3c2n1
dose: 200.0 mg/kg/injection, schedule: Q04DX002 (ip), vehicle: saline with Tween-80
  survivor count: 5 of 6
dose: 400.0 mg/kg/injection, schedule: Q04DX002 (ip), vehicle: saline with Tween-80
  survivor count: 2 of 6

## CN(C)CCCN1CN(CCCN(C)C)CC(C)(C)C1
[1]
  survivor count: 5 of 6

## CCOC(=O)c1nc2nc3cc(OC)c(OC)cc3cc2c(=O)[nH]1
dose: 25.0 mg/kg/injection, schedule: Q01DX005 (ip), vehicle: Klucel (hydroxypropylcellulose) (HPC)
  survivor count: 6 of 6
dose: 50.0 mg/kg/injection, schedule: Q01DX005 (ip), vehicle: Klucel (hydroxypropylcellulose) (HPC)
  survivor count: 6 of 6 (2×)
[9]
  survivor count: 6 of 6

## OC(c1ccco1)c1nc2ccccc2s1 (configuration not stated)
dose: 120.0 mg/kg/injection, schedule: Q01DX005 (ip), vehicle: Klucel (hydroxypropylcellulose) (HPC)
  survivor count: 6 of 6
[5]
  survivor count: 6 of 6

## O=C(Nc1ccc(Cl)cc1)NN1CCCCCC1
dose: 100.0 mg/kg/injection, schedule: Q04DX002 (ip), vehicle: saline with Tween-80
  survivor count: 2 of 6
